Literature values, collected in patent US6410055B1, “Spherical pharmaceutical granules comprising microcrystalline cellulose and a process for their production” (Novartis International Pharmaceutical Ltd., priority 1995, dated 2002).
Some of these results come from one statement about several compounds together.

Details: in water; no method or temperature given

| Compound | aqueous solubility |
| --- | --- |
| CC(=O)OCC(CCn1cnc2cnc(N)nc21)COC(C)=O [famciclovir] | more than 0.25 g/ml |
| Nc1nc2c(ncn2COCCO)c(=O)[nH]1 [acyclovir] | more than 0.25 g/ml |
